Publication doi:10.1101/2021.05.03.442391
Read-outs that look alike come from different tables or passages of the source. Results are given in words; binding and its absence hold for the method and conditions named. In cells and extracts the contact can be indirect. Some binding calls cover weakened binding; strength is not graded here. Where a sequence is shown, tags or fusion partners need not be part of it. Each block holds one binder with its values, some of them ahead of it.

By UniProt entry, the sequences of proteins in these tests, tags left out.
UniProt Q9CW03: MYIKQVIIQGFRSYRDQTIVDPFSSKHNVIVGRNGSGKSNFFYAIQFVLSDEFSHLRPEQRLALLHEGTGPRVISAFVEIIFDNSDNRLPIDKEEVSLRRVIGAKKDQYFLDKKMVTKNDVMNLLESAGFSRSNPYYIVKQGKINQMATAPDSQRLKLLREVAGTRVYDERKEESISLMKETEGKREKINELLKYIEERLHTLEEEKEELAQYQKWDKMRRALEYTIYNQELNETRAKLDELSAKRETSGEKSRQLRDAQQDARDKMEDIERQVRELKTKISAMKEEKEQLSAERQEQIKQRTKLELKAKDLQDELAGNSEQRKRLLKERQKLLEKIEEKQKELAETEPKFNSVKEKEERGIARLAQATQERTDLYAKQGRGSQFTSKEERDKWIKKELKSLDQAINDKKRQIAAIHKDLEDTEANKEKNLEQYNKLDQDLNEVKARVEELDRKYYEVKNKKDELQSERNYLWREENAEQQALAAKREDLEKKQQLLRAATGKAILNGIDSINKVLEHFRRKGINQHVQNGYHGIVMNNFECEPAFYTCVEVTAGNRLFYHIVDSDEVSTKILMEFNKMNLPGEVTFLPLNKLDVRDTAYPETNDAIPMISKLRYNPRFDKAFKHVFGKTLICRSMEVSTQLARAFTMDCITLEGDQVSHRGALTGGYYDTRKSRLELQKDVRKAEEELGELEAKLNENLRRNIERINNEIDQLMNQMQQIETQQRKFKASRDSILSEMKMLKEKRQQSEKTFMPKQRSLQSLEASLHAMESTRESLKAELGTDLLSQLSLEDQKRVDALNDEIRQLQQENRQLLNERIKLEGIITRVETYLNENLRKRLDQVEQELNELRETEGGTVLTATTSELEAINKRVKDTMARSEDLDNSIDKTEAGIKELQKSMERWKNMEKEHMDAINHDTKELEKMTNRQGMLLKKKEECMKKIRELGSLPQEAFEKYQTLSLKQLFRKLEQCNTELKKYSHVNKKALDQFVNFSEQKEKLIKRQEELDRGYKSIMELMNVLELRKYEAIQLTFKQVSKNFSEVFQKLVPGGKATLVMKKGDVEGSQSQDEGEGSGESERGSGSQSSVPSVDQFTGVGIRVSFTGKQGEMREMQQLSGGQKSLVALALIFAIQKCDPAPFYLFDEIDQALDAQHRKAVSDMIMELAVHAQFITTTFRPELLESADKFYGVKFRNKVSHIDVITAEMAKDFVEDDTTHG

Key:
Test in all cases: co-IP
[1] = target: SMC3 (mouse (endogenous in J1 ESCs and C57BL/6J testis)) (UniProt Q9CW03)
[2] = target: SMC3 (mouse (endogenous in J1 ESCs and C57BL/6J testis)) (UniProt Q9CW03); remark: listed apart in the source
[3] = target: T1, REC8 (mouse (endogenous in J1 ESCs and C57BL/6J testis)) (UniProt Q8C5S7)
T1 sequence: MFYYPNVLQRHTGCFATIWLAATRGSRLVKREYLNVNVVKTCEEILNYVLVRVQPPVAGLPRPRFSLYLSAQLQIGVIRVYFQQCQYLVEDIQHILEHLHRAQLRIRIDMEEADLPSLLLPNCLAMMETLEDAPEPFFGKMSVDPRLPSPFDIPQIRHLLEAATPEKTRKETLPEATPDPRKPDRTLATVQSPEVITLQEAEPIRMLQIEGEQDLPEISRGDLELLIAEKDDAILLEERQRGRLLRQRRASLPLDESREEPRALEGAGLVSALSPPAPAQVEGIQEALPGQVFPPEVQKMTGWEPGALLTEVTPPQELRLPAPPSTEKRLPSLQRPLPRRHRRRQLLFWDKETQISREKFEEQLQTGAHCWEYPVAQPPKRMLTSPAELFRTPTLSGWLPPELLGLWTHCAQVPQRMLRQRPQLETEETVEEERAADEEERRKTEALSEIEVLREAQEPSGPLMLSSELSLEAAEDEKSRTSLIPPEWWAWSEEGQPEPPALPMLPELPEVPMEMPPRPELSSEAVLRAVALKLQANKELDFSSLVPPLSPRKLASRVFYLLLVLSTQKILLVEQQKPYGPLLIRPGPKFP

[4] = target: T2, RAD21 (mouse (endogenous in J1 ESCs and C57BL/6J testis)), Q61550; conditions: remark: other sources report otherwise
T2 chain: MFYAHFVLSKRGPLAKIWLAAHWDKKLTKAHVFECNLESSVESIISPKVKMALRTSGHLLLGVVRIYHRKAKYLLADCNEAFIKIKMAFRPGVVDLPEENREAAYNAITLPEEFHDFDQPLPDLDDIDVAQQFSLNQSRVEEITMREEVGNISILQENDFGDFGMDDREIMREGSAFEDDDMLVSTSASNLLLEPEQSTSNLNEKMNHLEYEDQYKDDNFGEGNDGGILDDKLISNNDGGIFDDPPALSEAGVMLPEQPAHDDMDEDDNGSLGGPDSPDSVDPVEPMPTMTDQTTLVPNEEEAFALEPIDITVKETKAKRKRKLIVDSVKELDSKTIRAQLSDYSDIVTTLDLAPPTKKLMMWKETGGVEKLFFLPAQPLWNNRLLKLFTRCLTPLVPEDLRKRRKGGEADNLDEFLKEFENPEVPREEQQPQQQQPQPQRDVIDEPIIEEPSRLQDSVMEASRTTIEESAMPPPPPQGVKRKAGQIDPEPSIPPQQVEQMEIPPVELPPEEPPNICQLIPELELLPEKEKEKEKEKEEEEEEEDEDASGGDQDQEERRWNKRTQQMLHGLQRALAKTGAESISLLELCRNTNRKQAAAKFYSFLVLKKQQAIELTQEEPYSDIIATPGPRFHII

B1: RAD21 (protein, UniProt Q61550 1-635)
chain: T2 chain
- binding [1]: binds
- binding [2]: binds

B4: REC8 (protein, UniProt Q8C5S7 1-591)
chain: T1 sequence
- binding [1]: binds
- binding [2]: binds

More lines, now with the values ahead:

- binding [1]: binds
- binding [3]: binds
- binding [2]: binds
B2: STAG3 (protein, UniProt O70576 1-1240)
chain: MPTLWSPSTQHHGSSSGSESSPLQKSVRRAQMALSPCSSSILPCDDRDSQGTAEWDSPSTNEDSDFEDSLRRNVKKRAAKQPPKAVPAAKHRKKQSRIVSSGNGKNESVPSTNYLFDAVKAARSCMQSLVDEWLDNYKQDENAGFLELINFFIRACGCKSTVTPEMFKTMSNSEIIQHLTEEFNEDSGDYPLTAPGPSWKKFQGSFCEFVKTLVYQCQYSLLYDGFPMDDLISLLIGLSDSQVRAFRHTSTLAAMKLMTSLVKVALQLSLHKDNNQRQYEAERNKGPEQRAPERLESLLEKRKEFQENQEDIEGMMNAIFRGVFVHRYRDILPEIRAICIEEIGYWMQSYSTSFLNDSYLKYIGWTLHDKHKEVRLKCVKALAGLYSNQELSLRMELFTNRFKDRMVSMVMDRECEVAVEAIRLLTLILKNMEGVLTSADCEKIYSIVYISNRAMASSAGEFVYWKIFHPECGAKAVSDRERRRSPQAQKTFIYLLLAFFMESEHHNHAAYLVDSLWDCAGSYLKDWESLTNLLLQKDQNLGDMQERMLIEILVSSARQAAEGHPPVGRITGKKSLTAKERKLQAYDKMKLAEHLIPLLPQLLAKFSADAENVAPLLQLLSYFDLSIYCTQRLEKHLELLLQQLQEVVVKHVEPEVLEAAAHALYLLCKPEFTFFSRVDFARSQLVDFLTDRFQQELDDLMQSSFLDEDEVYSLTATLKRLSAFYNAHDLTRWEISEPCSRLLRKAVDTGEVPHQVILPALTLVYFSILWTVTHISESTSHKQLMSLKKRMVAFCELCQSCLSDVDPEIQEQAFVLLSDLLLIFSPQMIVGGRDFLRPLVFFPEATLQSELASFLMDHVFLQPGELGNGQSQEDHVQIELLHQRRRLLAGFCKLLLYGVLELDAASDVFKHYNKFYEDYGDIIKETLTRARQIDRCQCSRILLLSLKQLYTELIQEQGPQGLTELPAFIEMRDLARRFALSFGPQQLHNRDLVVMLHKEGIKFSLSELPPAGSSHEPPNLAFLELLSEFSPRLFHQDKRLLLSYLEKCLQRVSKAPNHPWGPVTTYCHSLHPLEITAEASPRGPPHSKKRCVEGPCRPQEEESSSQEESLQLNSGPTTPTLTSTAVKRKQSLRTVGKKQKGRPGPGPGPGPELICSQQLLGTQRLKMSSAPCFQIRCDPSGSGLGKQLTRLSLMEEDEEEELRLLDEEWQRGDKMLHSPSSPSEHGLDLLDTTELNMEDF

- binding [4]: no binding
B3: STAG3, O70576 1-1240 (protein)
chain: B2 chain
